Measurements reported in ChEMBL document CHEMBL4513142, “CO-ADD screening of Indiana University - Purdue University Indianapolis (USA) compounds”.
“And” between values parts separate entries of the source, which are not always exact repeats. Equal values may be shown once. This is one part of the list. Entries with a potency or affinity are not part of this list.

Test system: Pseudomonas aeruginosa
Details: Concentration 32 ug.mL-1;, ASSAY_TEST Inhibition of Bacterial Growth, detection method Absorption (OD600), MEDIA CAMHB, plate type 384well, NBS, CORNING #3640, time 18 hr

Compound | Inhibition (32 ug/mL) | Inhibition [%]
CC(C)C[C@H](NC(=O)c1ccc(Cl)cc1Cl)C(N)=O | 6.74% and -9.21% | –
CCCNC(=O)C(Cc1ccccc1)NC(=O)Cc1ccccc1 (configuration not stated) | – | 25.17
[C-]#[N+]c1ccc(C(=O)NC(Cc2ccc(C(F)(F)F)cc2)C(=O)NCCC)cc1 (configuration not stated) | – | 17.34
NC(Cc1ccccc1I)C(=O)O.O=C(O)C(F)(F)F (configuration not stated) | -20.47% and -2.69% | –
C[C@H](NC(=O)c1ccccc1Cl)C(=O)O | -3.39% and -0.78% | –
O=C(Cc1cccc(Br)c1)N[C@@H](Cc1ccccc1)C(=O)O | 0.64% and -5.32% | –
[C-]#[N+]c1ccc(C(=O)NC(CC)C(=O)NCCC)cc1 (configuration not stated) | – | 13.69
[C-]#[N+]c1ccc(C(=O)NC(Cc2ccccc2F)C(=O)NCCC)cc1 (configuration not stated) | – | 12.45
CCCNC(=O)C(Cc1ccccc1C)NC(=O)c1ccc(C(F)(F)F)cc1 (configuration not stated) | – | 13.98
NC(Cc1ccccc1F)C(=O)O.O=C(O)C(F)(F)F (configuration not stated) | -23.91% and -26.05% | –
[C-]#[N+]c1ccc(C(=O)NC(CC#C)C(=O)NCCC)cc1 (configuration not stated) | – | 14.53
CCCNC(=O)C(Cc1ccc(F)cc1)NC(=O)c1ccccc1 (configuration not stated) | – | 15.85
COc1cc(C(=O)N[C@@H](CC(C)C)C(=O)O)ccc1O | 4.81% and 14.24% | –
CC(C)C[C@H](NC(=O)c1cccnc1)C(N)=O | 8.83% and -13.69% | –
CCCNC(=O)C(Cc1ccccc1)NC(=O)c1ccc(F)cc1 (configuration not stated) | – | 18.15
[C-]#[N+]c1ccc(C(=O)NC(Cc2ccc(F)cc2)C(=O)NCCC)cc1 (configuration not stated) | – | 23.54
NC(=O)[C@@H]1CCCN1C(=O)c1ccccn1 | 13.77% and -3.54% | –
NC(Cc1ccc(F)c(F)c1)C(=O)O.O=C(O)C(F)(F)F (configuration not stated) | -17.31% and -13.86% | –
Cc1ccc(C(=O)NC(Cc2ccccc2C#N)C(=O)O)cc1 (configuration not stated) | 8.47% and 1.38% | –
Cc1ccc(C(=O)NC(Cc2cc(F)c(F)cc2F)C(=O)O)cc1 (configuration not stated) | -14.53% and 4.74% | –
CC(C)[C@H](NC(=O)c1cccc(C(F)(F)F)c1)C(=O)O | -2.92% and -9.19% | –
[C-]#[N+]c1ccc(C(=O)NC(CC=C)C(=O)NCCC)cc1 (configuration not stated) | – | 9.14
O=C(NC(Cc1ccc(Cl)nc1)C(=O)O)c1ccccc1 (configuration not stated) | 0.13% and -0.76% | –
NC(=O)[C@H](Cc1ccccc1)NC(=O)c1cccnc1 | 25.42% and 22.49% | –
NC(Cc1cccc(F)c1)C(=O)O.O=C(O)C(F)(F)F (configuration not stated) | -32.18% and -12.96% | –
O=C(NC(CCCc1ccccc1)C(=O)O)c1cccc2ccccc12 (configuration not stated) | -9.59% and 6.72% | –
NC(Cc1ccc(F)cc1)C(=O)O.O=C(O)C(F)(F)F (configuration not stated) | -25.43% and -46.24% | –

Record cards, as listed above:
`NC(Cc1ccc(F)c(F)c1)C(=O)O.O=C(O)C(F)(F)F` (configuration not stated) as listed: Inhibition (32 ug/mL): -17.31% and -13.86%
`NC(Cc1ccccc1F)C(=O)O.O=C(O)C(F)(F)F` (configuration not stated) as listed: Inhibition (32 ug/mL): -23.91% and -26.05%
